Laboratory results published in paper doi:10.1101/2022.12.21.521423 (bioRxiv, 2022).

Chains of the proteins cited; added tags and fusions are not shown. Lines headed by an entry give the natural chain unless they say otherwise; changes in a name come on top. Residues count along the entry.
UniProt Q96QE4, 28-905, stated change not applied: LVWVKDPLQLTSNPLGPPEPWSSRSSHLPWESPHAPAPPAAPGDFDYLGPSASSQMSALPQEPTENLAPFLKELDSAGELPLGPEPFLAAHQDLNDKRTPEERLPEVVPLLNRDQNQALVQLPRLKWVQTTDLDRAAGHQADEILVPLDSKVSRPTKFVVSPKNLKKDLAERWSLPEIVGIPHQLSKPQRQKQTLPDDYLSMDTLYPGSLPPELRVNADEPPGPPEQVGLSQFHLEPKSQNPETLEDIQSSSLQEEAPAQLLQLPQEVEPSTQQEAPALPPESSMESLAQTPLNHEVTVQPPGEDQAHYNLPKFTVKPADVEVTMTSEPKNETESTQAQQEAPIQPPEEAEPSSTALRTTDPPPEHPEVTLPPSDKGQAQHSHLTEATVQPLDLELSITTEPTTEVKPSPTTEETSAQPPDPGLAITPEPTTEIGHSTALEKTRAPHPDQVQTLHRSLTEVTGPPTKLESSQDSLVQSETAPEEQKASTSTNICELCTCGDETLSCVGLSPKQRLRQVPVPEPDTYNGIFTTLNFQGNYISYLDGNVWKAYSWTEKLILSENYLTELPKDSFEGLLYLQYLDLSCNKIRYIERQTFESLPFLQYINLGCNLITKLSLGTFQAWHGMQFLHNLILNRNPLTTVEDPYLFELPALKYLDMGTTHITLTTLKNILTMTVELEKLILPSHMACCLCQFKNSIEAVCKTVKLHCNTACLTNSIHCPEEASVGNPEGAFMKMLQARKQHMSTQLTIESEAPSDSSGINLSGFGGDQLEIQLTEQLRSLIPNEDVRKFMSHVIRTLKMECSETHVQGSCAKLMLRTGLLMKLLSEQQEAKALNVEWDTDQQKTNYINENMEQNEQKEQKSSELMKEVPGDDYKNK

Molecular target: LRRC37B_ECTO-Fc (human) (UniProt Q96QE4)
Test: affinity purification with mass spectrometry

In the case of “SCN1B of rat brain (from UniProt Q00954 19-218)”, the binding is reported as “binds”.

Results are given in words; binding and its absence hold for the method and conditions named. Binding seen in cells or lysates may run through a third protein. Here binding means that the protein was enriched with, or labelled near, the bait; the list need not be complete.
